One sequence from patent US20210147847 can be followed below.

The subject of the data set is human IgG1 Fc (Homo sapiens). The data set can be described thus: filter binding. As to conditions: low binding to Fc tag; 500 nM protein, 37 C; purified recombinant protein; label: 5'-32P or 5'-ATTO 647N; single-stranded DNA.

A weaker result is weaker than the reference pair of the same experiment.

As for “GCTGTGTGACTCCTGCAATGCAATCTAGCTGACAATGGGGGGGAAGAATGTGGGTGGGTGGCAGCTGTATCTTGTCTCC [CTL #5]”, the binding result is “binds more weakly”.
